{"source": "patent US11999712B1", "about": "“2-(benzo[b]thiophen-3-yl)-1-butyl-4,5-diphenyl-1H-imidazole as an anti-inflammatory and anti-microbial compound” (KING FAISAL UNIVERSITY, priority 2023, dated 2024)", "experiment_in_all_cases": "antimicrobial activity, agar dilution method", "type_in_all_cases": "cell-based", "key": {"Ps. aeruginosa": {"system": "Ps. aeruginosa", "details": "Ps. Aeroqonaza", "procedure": "(§1) The antibacterial properties of the synthesized compounds were studied by the method of agar dilution. Test solutions of each compound was prepared in a concentration of 1% using dimethylformamide as a solvent. Then the test solutions were diluted in a physiological solution to obtain the final experimental dilutions of 1:100, 1:200, 1:400, and 1:800. The effect of these substances was compared with furacillin in a controllable study. The testing microbes used were gram positive bacteria St. Aereus, gram negative bacteria E. Coli, and Ps. aeruginosa and Candida albicans fungi. The experiments used for this survey were a meat-pentonlu agar (EPA) for cultivation of bacteria and a Saburo environment for fungi. Each experiment used 1 mL of test solution on each plate for 500 min. Next, 2 drops of emulsified test solution with microbes feel were added. All experimental samples were taken from the agar after 10, 20, 40, 60 minutes in the environment on the basis of Patrk planted. Bacteria were cultivated at a temperature of 37° ° C. for 1 day and the mushroom was kept in a thermostat for […] at a temperature of 28° C. Then results were checked. Results for the control and the antimicrobial activity for the synthesized compounds are listed in Table 1 below. […]"}, "St. Aereus": {"system": "St. Aereus", "procedure": "as §1"}, "E. Coli": {"system": "E. Coli", "procedure": "as §1"}, "Candida albicans": {"system": "Candida albicans", "procedure": "as §1"}, "[1]": {"details": "dilution rate 1:100, exposure time 10 min"}, "[2]": {"details": "dilution rate 1:100, exposure time 20 min"}, "[3]": {"details": "dilution rate 1:100, exposure time 40 min"}, "[4]": {"details": "dilution rate 1:100, exposure time 60 min"}, "[5]": {"details": "dilution rate 1:200, exposure time 10 min"}, "[6]": {"details": "dilution rate 1:200, exposure time 20 min"}, "[7]": {"details": "dilution rate 1:200, exposure time 40 min"}, "[8]": {"details": "dilution rate 1:200, exposure time 60 min"}, "[9]": {"details": "dilution rate 1:400, exposure time 10 min"}, "[10]": {"details": "dilution rate 1:400, exposure time 20 min"}, "[11]": {"details": "dilution rate 1:400, exposure time 40 min"}, "[12]": {"details": "dilution rate 1:400, exposure time 60 min"}, "[13]": {"details": "dilution rate 1:800, exposure time 10 min"}, "[14]": {"details": "dilution rate 1:800, exposure time 20 min"}, "[15]": {"details": "dilution rate 1:800, exposure time 40 min"}, "[16]": {"details": "dilution rate 1:800, exposure time 60 min"}}, "note": "At least one structure is not confirmed: it was looked up by name or label, or the drawing left a doubt."}
{"molecule": "NC(=O)N/N=C/c1ccc([N+](=O)[O-])o1", "note": "[Furacilin]", "values": [{"measurement": "antimicrobial activity", "setting": "Ps. aeruginosa; [1]", "result": "+"}, {"measurement": "antimicrobial activity", "setting": "Ps. aeruginosa; [2]", "result": "+"}, {"measurement": "antimicrobial activity", "setting": "Ps. aeruginosa; [3]", "result": "+"}, {"measurement": "antimicrobial activity", "setting": "Ps. aeruginosa; [4]", "result": "+"}, {"measurement": "antimicrobial activity", "setting": "Ps. aeruginosa; [5]", "result": "+"}, {"measurement": "antimicrobial activity", "setting": "Ps. aeruginosa; [6]", "result": "+"}, {"measurement": "antimicrobial activity", "setting": "Ps. aeruginosa; [7]", "result": "+"}, {"measurement": "antimicrobial activity", "setting": "Ps. aeruginosa; [8]", "result": "+"}, {"measurement": "antimicrobial activity", "setting": "Ps. aeruginosa; [9]", "result": "+"}, {"measurement": "antimicrobial activity", "setting": "Ps. aeruginosa; [10]", "result": "+"}, {"measurement": "antimicrobial activity", "setting": "Ps. aeruginosa; [11]", "result": "+"}, {"measurement": "antimicrobial activity", "setting": "Ps. aeruginosa; [12]", "result": "+"}, {"measurement": "antimicrobial activity", "setting": "Ps. aeruginosa; [13]", "result": "+"}, {"measurement": "antimicrobial activity", "setting": "Ps. aeruginosa; [14]", "result": "+"}, {"measurement": "antimicrobial activity", "setting": "Ps. aeruginosa; [15]", "result": "+"}, {"measurement": "antimicrobial activity", "setting": "Ps. aeruginosa; [16]", "result": "+"}, {"measurement": "antimicrobial activity", "setting": "St. Aereus; [1]", "result": "−"}, {"measurement": "antimicrobial activity", "setting": "St. Aereus; [2]", "result": "−"}, {"measurement": "antimicrobial activity", "setting": "St. Aereus; [3]", "result": "−"}, {"measurement": "antimicrobial activity", "setting": "St. Aereus; [4]", "result": "−"}, {"measurement": "antimicrobial activity", "setting": "St. Aereus; [5]", "result": "+"}, {"measurement": "antimicrobial activity", "setting": "St. Aereus; [6]", "result": "+"}, {"measurement": "antimicrobial activity", "setting": "St. Aereus; [7]", "result": "+"}, {"measurement": "antimicrobial activity", "setting": "St. Aereus; [8]", "result": "+"}, {"measurement": "antimicrobial activity", "setting": "St. Aereus; [9]", "result": "+"}, {"measurement": "antimicrobial activity", "setting": "St. Aereus; [10]", "result": "+"}, {"measurement": "antimicrobial activity", "setting": "St. Aereus; [11]", "result": "+"}, {"measurement": "antimicrobial activity", "setting": "St. Aereus; [12]", "result": "+"}, {"measurement": "antimicrobial activity", "setting": "St. Aereus; [13]", "result": "+"}, {"measurement": "antimicrobial activity", "setting": "St. Aereus; [14]", "result": "+"}, {"measurement": "antimicrobial activity", "setting": "St. Aereus; [15]", "result": "+"}, {"measurement": "antimicrobial activity", "setting": "St. Aereus; [16]", "result": "+"}, {"measurement": "antimicrobial activity", "setting": "E. Coli; [1]", "result": "−"}, {"measurement": "antimicrobial activity", "setting": "E. Coli; [2]", "result": "−"}, {"measurement": "antimicrobial activity", "setting": "E. Coli; [3]", "result": "−"}, {"measurement": "antimicrobial activity", "setting": "E. Coli; [4]", "result": "−"}, {"measurement": "antimicrobial activity", "setting": "E. Coli; [5]", "result": "+"}, {"measurement": "antimicrobial activity", "setting": "E. Coli; [6]", "result": "+"}, {"measurement": "antimicrobial activity", "setting": "E. Coli; [7]", "result": "+"}, {"measurement": "antimicrobial activity", "setting": "E. Coli; [8]", "result": "+"}, {"measurement": "antimicrobial activity", "setting": "E. Coli; [9]", "result": "+"}, {"measurement": "antimicrobial activity", "setting": "E. Coli; [10]", "result": "+"}, {"measurement": "antimicrobial activity", "setting": "E. Coli; [11]", "result": "+"}, {"measurement": "antimicrobial activity", "setting": "E. Coli; [12]", "result": "+"}, {"measurement": "antimicrobial activity", "setting": "E. Coli; [13]", "result": "+"}, {"measurement": "antimicrobial activity", "setting": "E. Coli; [14]", "result": "+"}, {"measurement": "antimicrobial activity", "setting": "E. Coli; [15]", "result": "+"}, {"measurement": "antimicrobial activity", "setting": "E. Coli; [16]", "result": "+"}, {"measurement": "antimicrobial activity", "setting": "Candida albicans; [1]", "result": "−"}, {"measurement": "antimicrobial activity", "setting": "Candida albicans; [2]", "result": "−"}, {"measurement": "antimicrobial activity", "setting": "Candida albicans; [3]", "result": "+"}, {"measurement": "antimicrobial activity", "setting": "Candida albicans; [4]", "result": "+"}, {"measurement": "antimicrobial activity", "setting": "Candida albicans; [5]", "result": "+"}, {"measurement": "antimicrobial activity", "setting": "Candida albicans; [6]", "result": "+"}, {"measurement": "antimicrobial activity", "setting": "Candida albicans; [7]", "result": "+"}, {"measurement": "antimicrobial activity", "setting": "Candida albicans; [8]", "result": "+"}, {"measurement": "antimicrobial activity", "setting": "Candida albicans; [9]", "result": "+"}, {"measurement": "antimicrobial activity", "setting": "Candida albicans; [10]", "result": "+"}, {"measurement": "antimicrobial activity", "setting": "Candida albicans; [11]", "result": "+"}, {"measurement": "antimicrobial activity", "setting": "Candida albicans; [12]", "result": "+"}, {"measurement": "antimicrobial activity", "setting": "Candida albicans; [13]", "result": "+"}, {"measurement": "antimicrobial activity", "setting": "Candida albicans; [14]", "result": "+"}, {"measurement": "antimicrobial activity", "setting": "Candida albicans; [15]", "result": "+"}, {"measurement": "antimicrobial activity", "setting": "Candida albicans; [16]", "result": "+"}]}
